These are yes or no findings as the source states them, for the method shown.
Target: Spt7 bromodomain (residues 363–619) (UniProt P35177)
Assay: SPR; peptides binding to immobilized Spt7 bromodomain; Biacore T100 and T200, 25°C; 1:1 binding model; relative binding; both purified

Amino acid sequences for entries named in this document (tags omitted). Residues count along the entry.
UniProt P35177, residues 363-619: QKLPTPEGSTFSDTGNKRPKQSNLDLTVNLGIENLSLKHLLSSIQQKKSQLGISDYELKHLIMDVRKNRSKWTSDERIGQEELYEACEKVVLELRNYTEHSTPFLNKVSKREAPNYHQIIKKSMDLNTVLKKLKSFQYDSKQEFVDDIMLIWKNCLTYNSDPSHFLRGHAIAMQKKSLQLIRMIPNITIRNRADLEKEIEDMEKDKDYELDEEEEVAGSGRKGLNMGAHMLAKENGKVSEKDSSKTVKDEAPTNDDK

“K14R-K18ac H3 peptide (11–26) (from UniProt P61830 12-27)” was tested, and the binding was “no binding”.

From PMC4157579, “Lysine Acetylation Controls Local Protein Conformation by Influencing Proline Isomerization” (Molecular Cell, 2014)
